Assay [1] addresses T1, GFP-NPH3 S744A (Arabidopsis) (UniProt Q9FMF5).
T1 sequence: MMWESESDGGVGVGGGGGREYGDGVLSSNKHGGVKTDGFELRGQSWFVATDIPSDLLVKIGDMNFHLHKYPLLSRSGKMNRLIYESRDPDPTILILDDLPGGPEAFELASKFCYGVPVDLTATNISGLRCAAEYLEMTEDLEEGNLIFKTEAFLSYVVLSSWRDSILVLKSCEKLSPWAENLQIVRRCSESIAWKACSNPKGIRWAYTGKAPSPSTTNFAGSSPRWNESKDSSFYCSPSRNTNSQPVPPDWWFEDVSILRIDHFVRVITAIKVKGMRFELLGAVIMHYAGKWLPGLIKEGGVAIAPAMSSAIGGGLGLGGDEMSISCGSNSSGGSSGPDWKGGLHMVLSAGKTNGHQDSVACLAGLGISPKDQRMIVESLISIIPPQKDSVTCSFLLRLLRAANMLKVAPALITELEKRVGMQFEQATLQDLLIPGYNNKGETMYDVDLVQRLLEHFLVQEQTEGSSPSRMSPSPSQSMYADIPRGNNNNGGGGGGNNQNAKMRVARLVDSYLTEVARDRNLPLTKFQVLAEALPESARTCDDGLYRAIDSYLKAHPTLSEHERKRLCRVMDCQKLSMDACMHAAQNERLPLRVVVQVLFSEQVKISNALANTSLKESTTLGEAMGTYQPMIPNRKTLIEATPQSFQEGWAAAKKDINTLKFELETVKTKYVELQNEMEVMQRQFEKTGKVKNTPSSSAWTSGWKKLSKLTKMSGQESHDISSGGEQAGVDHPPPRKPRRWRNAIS
Put plainly: far-Western, overlay or dot blot; GFP-Trap immunoprecipitates from etiolated seedlings irradiated with 20 µmol m^-2 s^-1 blue light for 15 min (L), separated by SDS-PAGE, on PVDF; probed with purified GST-14-3-3 or GST alone at 1 µM in 20 mM HEPES-KOH pH 7.7, 75 mM KCl, 0.1 mM EDTA, 1 mM DTT, 2% milk, 0.04% Tween-20; detected with anti-GST; both purified.

Assay [2] deals with T1, GFP-NPH3 S744A (Arabidopsis). Put plainly: far-Western, overlay or dot blot; GFP-Trap immunoprecipitates from etiolated seedlings maintained in darkness (D), separated by SDS-PAGE, on PVDF; probed with purified GST-14-3-3 or GST alone at 1 µM in 20 mM HEPES-KOH pH 7.7, 75 mM KCl, 0.1 mM EDTA, 1 mM DTT, 2% milk, 0.04% Tween-20; detected with anti-GST; both purified.

No constants are given. Whether binding was seen depends on the method and setting. Tags and fused reporters may be left off the sequences shown.

B1: GST-14-3-3 Epsilon (natural protein, Arabidopsis, UniProt P48347 1-254, looked up)
chain: MENEREKQVYLAKLSEQTERYDEMVEAMKKVAQLDVELTVEERNLVSVGYKNVIGARRASWRILSSIEQKEESKGNDENVKRLKNYRKRVEDELAKVCNDILSVIDKHLIPSSNAVESTVFFYKMKGDYYRYLAEFSSGAERKEAADQSLEAYKAAVAAAENGLAPTHPVRLGLALNFSVFYYEILNSPESACQLAKQAFDDAIAELDSLNEESYKDSTLIMQLLRDNLTLWTSDLNEEGDERTKGADEPQDEN
notes: Arabidopsis 14-3-3 isoform Epsilon (epsilon group member), expressed from pGEX-4T1 as a translational fusion with GST; source: E. coli BL21(DE3), purified (glutathione agarose)
As for B1, the binding result in assay [1] and in assay [2] was “no binding (tested: 1 µM)” throughout.

(Values after paper PMC8531357, “Regulation of plant phototropic growth by NPH3/RPT2-like substrate phosphorylation and 14-3-3 binding” (Nature Communications, 2021).)
